## Library screen at single concentrations

Chains of the proteins cited; added tags and fusions are not shown. Residues count along the entry.
UniProt P9WFT3, whole entry: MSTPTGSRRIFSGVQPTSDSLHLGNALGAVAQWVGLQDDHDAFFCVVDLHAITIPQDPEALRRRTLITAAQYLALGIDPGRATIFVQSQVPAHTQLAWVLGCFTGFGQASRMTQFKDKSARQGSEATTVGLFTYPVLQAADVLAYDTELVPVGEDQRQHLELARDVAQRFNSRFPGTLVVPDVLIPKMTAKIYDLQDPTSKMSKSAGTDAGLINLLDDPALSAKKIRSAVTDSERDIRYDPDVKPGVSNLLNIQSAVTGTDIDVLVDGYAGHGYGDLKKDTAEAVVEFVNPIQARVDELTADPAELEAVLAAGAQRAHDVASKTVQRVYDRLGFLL
UniProt A4I591, 1-473: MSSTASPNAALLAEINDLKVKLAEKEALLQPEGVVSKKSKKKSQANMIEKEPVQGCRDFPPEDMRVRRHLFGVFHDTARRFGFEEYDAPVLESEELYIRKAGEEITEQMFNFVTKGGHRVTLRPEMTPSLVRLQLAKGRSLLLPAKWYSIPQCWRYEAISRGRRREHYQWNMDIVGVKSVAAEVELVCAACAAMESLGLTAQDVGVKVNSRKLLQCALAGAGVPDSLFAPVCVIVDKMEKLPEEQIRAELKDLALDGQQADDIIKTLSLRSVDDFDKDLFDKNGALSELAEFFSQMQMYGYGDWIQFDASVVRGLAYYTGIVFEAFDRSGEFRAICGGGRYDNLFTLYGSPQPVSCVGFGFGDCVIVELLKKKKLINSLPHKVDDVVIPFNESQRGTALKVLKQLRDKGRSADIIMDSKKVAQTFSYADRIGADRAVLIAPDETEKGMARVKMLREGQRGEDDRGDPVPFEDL

MtTrpRS: 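Enzyme assay of tryptophanyl-tRNA synthetase; the read-out is not stated. Target: Tryptophan-tRNA ligase, Mycobacterium tuberculosis (UniProt P9WFT3). Tested at 10 µM. Higher most likely means stronger inhibition; the record gives no direction and few retests gave an IC50. About 65,000 compounds were tested under these conditions; 0.098% (about 64) showed 50% or more at least once.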
LiHisRS: 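Enzyme assay of histidyl-tRNA synthetase; the read-out is not stated. Target: Histidine-tRNA ligase, Leishmania infantum (UniProt A4I591). Concentration: 30 µM. Direction is inferred from retests: higher values go with stronger inhibition. The assay is labelled LdHisRS but filed under L. infantum. About 69,000 compounds were tested under these conditions; 0.6% (about 410) showed 50% or more at least once.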

Values are the deposited “Percent Effect”, in %.
The record does not define 0% and 100%; most values in the screen are far below 50% and negative numbers occur (in some assays of this library far below -100).
This is an unselected part of the compounds tested.
A dash means the value is not listed here; it may have been measured.

compound | MtTrpRS | LiHisRS
COc1ccccc1-c1nnc([C@H]2CCN(C(C)=O)C2)o1 | 1.883% | 25%
O=C1CCNc2ccc(F)cc2CN1Cc1ccco1 | - | 12.24%
N#CC1(NC(=O)COC(=O)Cn2cccn2)CCCC1 | -9.091% | 19.19%
Cc1ccc(CNC2CCc3nc(C(C)C)nn3C2)o1 (stereo not shown) | 1.027% | 6.742%
CNC(=O)CN1CCC(NC(=O)C(C)Oc2ccccc2C#N)CC1 (stereo not shown) | 0.1211% | 1.754%
CC(C)(C)CN1CC(COc2ccccc2)Oc2ccncc2S1(=O)=O (stereo not shown) | - | 28.87%
Cc1nccc([C@@H]2C[C@@H]3CCN(S(C)(=O)=O)C[C@H]3O2)n1 | 2.682% | 22.64%
O=C(CCn1ccccc1=O)N1CCN(Cc2cccc(Cl)c2)CC1 | 2.314% | 8.602%
COc1cccc(CCN2C[C@H]3CCNCC[C@H]3S2(=O)=O)c1 | -6.131% | 12.28%
Cc1c(Br)cccc1CNC1(CCO)CCOCC1 | -2.786% | 0%
Cc1ccc(N2CCC3(CCN(C(=O)N(C)C)CC3)CC2)nn1 | 2.261% | 9.735%
CNc1ncc(CN(C)C(=O)c2cccc(CC3CCNCC3)c2)cn1 | -5.601% | 15.08%
c1sc(C2CCCCC2)nc1CN1CCn2c(nnc2C2CC2)C1 | -4.475% | 8.036%
Cc1cccc(CN2CCC3(CC2)COC(COCC2CC2)C3)n1 (stereo not shown) | - | 23.76%
CC(C)OCCSCCn1nc2ccccn2c1=O | 0% | 7.692%
O=C1CSC(c2ccncc2)c2c(n(C3CCOCC3)[nH]c2=O)N1 (stereo not shown) | 4.972% | 13.16%
CCN(Cc1ccccc1)C(=O)c1cc(C2CCCN2C)ccn1 (stereo not shown) | - | 30%
O=C(c1ccccn1)N1CCC(Oc2cccnc2)CC1 | -2.058% | 11.11%
CC(C)CNS(=O)(=O)c1ccc(C(=O)N(C)CCc2cn[nH]c2)cc1 | -0.1032% | 5.208%
COCc1ccc(C(=O)N2CCN(CC3CC3)[C@@H]3CS(=O)(=O)C[C@@H]32)o1 | -0.09671% | 8%
CC(=O)N1CCN(CCNC(=O)c2nc3ccccc3c(=O)[nH]2)CC1 | 5.392% | 26.32%
COCCN1C(=O)[C@]2(CC[C@@H]3CN(C(=O)NCC(C)C)C[C@@H]32)N=C1C | -2.204% | 5.66%
Cc1c(C(=O)N2CCOCC2)n(C)c2ccc(Cl)cc12 | 4.003% | 14.29%
CC(=O)N1CCCCC1c1nc(N)ncc1-c1ccccc1 (stereo not shown) | 0% | 12.41%
O=C(c1cccc(CO)n1)N1CCCC1c1nc2cc(F)ccc2[nH]1 (stereo not shown) | -2.164% | 11.11%
CCc1cc(N2CCS(=O)(=O)CC2)n2nc(C)c(C)c2n1 | -3.99% | 13.33%
CCS(=O)(=O)NCC1Cn2nnc(-c3ccccc3)c2CO1 (stereo not shown) | -5.838% | 17%
Cc1cc2nc(SCC(=O)N3CCCC3)n(-c3ccccc3)c(=O)c2[nH]1 | -2.225% | 51.43%
Cc1cnc(N2CCC3(CC(=O)N(Cc4csc(C)n4)C3)C2)nc1 (stereo not shown) | -1.106% | 17.95%
CC(C)Oc1cccc(C(O)CNC(=O)CCc2ccncc2)c1 (stereo not shown) | -3.043% | 1.905%
Cc1ccc(-c2ncc(C(=O)NCCS(N)(=O)=O)s2)c(C)c1 | -3.991% | 9.524%
CCCc1nc(CN2CCN(C(C)c3nc(C4CC4)no3)CC2)no1 (stereo not shown) | -4.032% | 1.709%
Cn1cc(CCCN2CCN(C(=O)c3cccc(O)c3)CC2)cn1 | -6.351% | 12.82%
CC(=O)N1CC[C@@H]2O[C@H](C(=O)Nc3nc(C)cs3)C[C@@H]21 | - | 21.15%
COc1ccc(C(C)NCCc2ccc(NC(C)=O)cc2)cc1F (stereo not shown) | -1.817% | 5.882%
COc1cccc(C2CCCN2C(=O)c2cc3c([nH]c2=O)CCC3)c1 (stereo not shown) | 0.5629% | 19.23%
COC(=O)C(NC(=O)C1CCCC1)c1cc(F)ccc1F (stereo not shown) | -3.191% | 5.769%
COCCCN(C)[C@@H]1c2ccccc2C2(CCNCC2)[C@H]1O | -2.473% | 0%
O=C(NCC1CCOC1)N1CCN(Cc2ccc3c(c2)CCO3)CC1 (stereo not shown) | -0.2924% | 34.85%
COc1cc(C2SCC(=O)Nc3n[nH]cc32)cc(OC)c1O (stereo not shown) | 0.9492% | 25%
Cc1c(Br)cc2c(c1C)OCC(N(C)C)C2=O (stereo not shown) | - | -6.186%
O=C1C(Sc2nc(=O)ccn2C2CC2)CCN1c1ccccc1F (stereo not shown) | -4.107% | -19.18%
O=C(NC1CC1)[C@H]1C[C@H]2OCC[C@H]2N(Cc2cccnc2)C1 | -3.139% | 5.455%
COc1cc2c(nn1)CCN(Cc1noc(-c3ccccc3)n1)C2 | -4.08% | 24%
Cc1c(C(C)NC(=O)Nc2ccccc2F)cnn1C (stereo not shown) | -2.886% | 23.08%
CCCN(CC(F)F)c1cc(COC)nc2ncnn12 | -1.487% | 17.65%
Cc1cc(CNC(=O)CC2CCN(C(C)C)CC2)n(C)n1 | 4.406% | 15.08%
CCN1CCCC(O)(c2nc(C)c(CCOc3ccc(F)cc3)s2)CC1 (stereo not shown) | 38.27% | 3.448%
Clc1cc(NCc2nccs2)nc2[nH]ccc12 | 4.897% | 22.89%
CCn1ccnc1C1CCN(c2ncnc3ccsc23)CC1 | 5.948% | 30.14%
CC(C)(C)SCC(=O)NC(C)(C(N)=O)c1cccc(Cl)c1 (stereo not shown) | 2.448% | 0%
CC(=O)NCC1CCN(c2cc(C)nc(-c3ccncc3)n2)CC1 | 4.032% | 59.83%
O=C(c1cc(COc2ccc3c(c2)OCO3)[nH]n1)N1CCCCO1 | -2.828% | 9.677%
c1ccc(CN2CCN(Cc3cnc(C4CCCCO4)nc3)CC2)cc1 (stereo not shown) | 1.015% | 8.511%
COCC(Nc1ncnc2sc(C(=O)O)c(C)c12)c1ccnn1C (stereo not shown) | 2.593% | 17.78%
Cc1ccc(CNC2(Cc3cc(CO)on3)COC2)o1 | -2.2% | 17.57%
COc1cccc(C(C(=O)O)N2CCCN(c3ccnc(C)c3)CC2)c1 (stereo not shown) | -2.147% | 14.29%
CS(=O)(=O)NC1CCN(C(=O)c2ccc(Br)cc2)C1 (stereo not shown) | 2.249% | 18.75%
C/N=C1/c2cc3cc(OC)ccc3n2CCN1C | 0.6477% | 8.621%
Cn1cc(CN2CCCn3cnc(COCc4ccco4)c3C2)cn1 | 1.022% | 2.778%
CCn1c(C2CCN(C(=O)c3cc(CC(C)C)no3)CC2)nn(C)c1=O | 3.456% | 11.9%
O=C(NCCc1ccn(-c2ccccc2)n1)N1CCCC(CO)C1 (stereo not shown) | -5.266% | 11.5%
Cc1nonc1OCCNC(=O)COc1ccc(Cl)cc1Cl | 1.387% | 10.34%
CC(C)c1cc(NCC2(N(C)C)CCCC2)ncn1 | -2.963% | 4.444%
CC(C)N1CCC(CC(=O)N2CCCCC2CCn2cccn2)CC1 (stereo not shown) | 2.023% | 6.806%
C1CC(N2Cc3nnn(CC4CC4)c3C(COCC3CC3)C2)C1 (stereo not shown) | - | 9.434%
Cc1ccc(CN2CCC(n3cc(C(O)c4ccccc4)nn3)CC2)o1 (stereo not shown) | -0.768% | 26.53%

The last 6 entries again:

{"compound": "O=C(NCCc1ccn(-c2ccccc2)n1)N1CCCC(CO)C1", "stereo": "stereo not shown", "MtTrpRS": -5.266, "LiHisRS": 11.5}
{"compound": "Cc1nonc1OCCNC(=O)COc1ccc(Cl)cc1Cl", "MtTrpRS": 1.387, "LiHisRS": 10.34}
{"compound": "CC(C)c1cc(NCC2(N(C)C)CCCC2)ncn1", "MtTrpRS": -2.963, "LiHisRS": 4.444}
{"compound": "CC(C)N1CCC(CC(=O)N2CCCCC2CCn2cccn2)CC1", "stereo": "stereo not shown", "MtTrpRS": 2.023, "LiHisRS": 6.806}
{"compound": "C1CC(N2Cc3nnn(CC4CC4)c3C(COCC3CC3)C2)C1", "stereo": "stereo not shown", "LiHisRS": 9.434}
{"compound": "Cc1ccc(CN2CCC(n3cc(C(O)c4ccccc4)nn3)CC2)o1", "stereo": "stereo not shown", "MtTrpRS": -0.768, "LiHisRS": 26.53}

Data taken from ChEMBL document CHEMBL3988442, “University of Dundee, Small-Polar-MMV Screening Library” (2021).